In patent US20210087156A1, “PHARMACEUTICALLY ACCEPTABLE SALTS OF BENZODICYCLOALKANE DERIVATIVE, P[…] THEREOF, AND APPLICATION THEREOF” (priority 2018, published 2021):
The name of at least one read-out is uncertain.

Experiment: In vivo test of rats: pharmacokinetics after oral administration
Parameters: species or system SD rats
Experimental: LC-MS/MS method was applied for the determination of the drug concentration in plasma at different times after the example compounds were orally administered to rats in order to study the pharmacokinetic behavior of the compounds of the invention in vivo in rats and evaluate their pharmacokinetic characteristics.
Test Animals: healthy Adult male SD rats (weight 200-300 g, 3, fasted), provided by SLAC company;
Administration and Dosage: (16 mg/kg or 24 mg/kg, 10 mL/kg, 5% 1,2-propanediol (1,2-Propanediol, Shanghai Titan Technology Co., Ltd. Lot No.: P1057349)) was administered via oral gavage to SD rats;
Blood collection: firstly, the animals which were selected to meet the test requirements prior to administration were weighed. The rats were bound before the blood collection, blood from each administered rat was taken at predetermined time points, (blood was collected at 0.083, 0.25, 0.5, 1, 2, 4, 6, 8 h before and after administration respectively, 9 time points in total), about 150 μl of blood was collected via orbital vein. Blood was transferred to a 1.5 ml tube to which K2EDTA was added previously. The collected blood sample was put on ice, and centrifuged to obtain plasma sample (2000 g, 5 min under 4° C.) within 15 minutes. All the plasma samples were stored at approximately −70° C. until analysis.
LC/MS/MS method was applied to determine the concentrations of the drug. […]

## C[C@@]12CCCCC[C@@H](Cc3ccc(OC(=O)NC4COC4)cc31)[C@@H]2N [free base of Compound X]
  relative bioavailability compared with oral administration of dezocine (in words): greatly improved
